From patent US12343403B2, “Targeted ligand-payload based drug delivery for cell therapy” (Purdue Research Foundation, priority 2017, dated 2025)
At least one structure is not confirmed: it was looked up by name or label, or the drawing left a doubt.

System: antiCD19 CAR T cell (FMC63 CAR T) against CD19+ Raji tumor cell
Test: CAR T cell lysis effect (LDH), antiCD19 CAR T cell against CD19+ Raji tumor cell
Type: cell-based
Settings: 10 nM; two E:T ratios

Structure (SMILES): C=CC(=O)N1CCC[C@@H](n2nc(-c3ccc(Oc4ccccc4)cc3)c3c(N)ncnc32)C1 [Ibrutinib]
- lysis effect of antiCD19 CAR T cell against CD19+ Raji tumor cell: decrease the lysis effect

Structure (SMILES): Cc1nc(Nc2ncc(C(=O)Nc3c(C)cccc3Cl)s2)cc(N2CCN(CCO)CC2)n1 [Dasatinib]
- lysis effect of antiCD19 CAR T cell against CD19+ Raji tumor cell: decrease the lysis effect
